Measurements as given in paper PMC9759854.
Results are given in words; binding and its absence hold for the method and conditions named. For part of these data: Binding seen in cells or lysates may run through a third protein. Some binding calls cover weakened binding; strength is not graded here.

Sequences of proteins named here, by UniProt entry; tags and fusion partners are left off. A change or cut given only in a name is not applied to a line headed by its entry. A line that says so, or that is headed by a name, gives the form on record, which may keep a tag or linker. Residues count along the entry.
UniProt Q9UKV8: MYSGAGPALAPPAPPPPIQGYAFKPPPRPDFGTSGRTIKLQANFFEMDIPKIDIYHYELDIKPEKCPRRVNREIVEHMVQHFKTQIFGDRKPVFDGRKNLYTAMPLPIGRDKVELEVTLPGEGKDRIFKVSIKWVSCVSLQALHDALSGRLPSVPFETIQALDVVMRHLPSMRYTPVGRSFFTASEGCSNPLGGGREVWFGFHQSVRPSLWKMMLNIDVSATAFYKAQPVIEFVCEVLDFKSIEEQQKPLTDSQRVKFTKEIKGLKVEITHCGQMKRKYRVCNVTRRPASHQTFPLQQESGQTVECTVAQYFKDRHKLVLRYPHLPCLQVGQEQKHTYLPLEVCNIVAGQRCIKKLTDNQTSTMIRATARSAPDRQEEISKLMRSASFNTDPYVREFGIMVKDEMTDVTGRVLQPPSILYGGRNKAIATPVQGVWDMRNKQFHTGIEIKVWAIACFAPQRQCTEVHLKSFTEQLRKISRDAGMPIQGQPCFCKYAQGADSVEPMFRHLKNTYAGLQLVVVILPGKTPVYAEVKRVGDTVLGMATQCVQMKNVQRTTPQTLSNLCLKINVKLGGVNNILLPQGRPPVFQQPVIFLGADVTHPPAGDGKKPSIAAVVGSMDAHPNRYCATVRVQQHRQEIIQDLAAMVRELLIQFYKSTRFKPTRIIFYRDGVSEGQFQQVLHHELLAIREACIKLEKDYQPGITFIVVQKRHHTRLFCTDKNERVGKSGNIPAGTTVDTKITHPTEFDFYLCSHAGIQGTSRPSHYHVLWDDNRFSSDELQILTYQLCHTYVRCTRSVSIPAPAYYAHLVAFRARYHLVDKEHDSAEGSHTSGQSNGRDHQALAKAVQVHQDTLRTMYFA
pSOS AGO2-PIWI (human Argonaute 2 PIWI domain fused to hSOS): residues 517-818 of Q9UKV8
UniProt P17980: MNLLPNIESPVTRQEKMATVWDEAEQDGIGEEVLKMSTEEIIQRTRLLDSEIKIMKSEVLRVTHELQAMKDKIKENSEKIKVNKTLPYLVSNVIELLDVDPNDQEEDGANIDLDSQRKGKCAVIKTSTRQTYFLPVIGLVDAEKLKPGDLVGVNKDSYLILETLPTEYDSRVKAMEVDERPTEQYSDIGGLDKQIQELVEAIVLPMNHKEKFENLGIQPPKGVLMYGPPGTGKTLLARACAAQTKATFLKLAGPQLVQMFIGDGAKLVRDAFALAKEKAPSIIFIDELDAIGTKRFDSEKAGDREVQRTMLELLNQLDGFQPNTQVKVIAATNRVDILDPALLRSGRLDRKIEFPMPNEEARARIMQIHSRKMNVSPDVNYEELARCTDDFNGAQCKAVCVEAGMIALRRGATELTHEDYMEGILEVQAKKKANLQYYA

Tests used:
HA-AGO2-PIWI (human) [1] = biological target: HA-AGO2-PIWI (human) (UniProt Q9UKV8); test: co-IP; HeLa cells co-transfected with HA-AGO2-PIWI and Flag-PSMC3; nucleoplasmic or cytoplasmic extracts
HA-AGO2-PIWI (human) [2] = biological target: HA-AGO2-PIWI (human) (UniProt Q9UKV8); test: co-IP; co-IP in A549 and Huh7 cells
HA-AGO2-PIWI (human) [3] = biological target: HA-AGO2-PIWI (human) (UniProt Q9UKV8); test: co-IP; HeLa cells co-transfected with HA-AGO2-PIWI and Flag-PSMC3; IP with anti-HA, blot with anti-Flag and anti-HA; lysates with or without RNase A (10 mg/ml, room temperature, 30 min)
[4] = biological target: AGO2 (endogenous, precipitated with anti-AGO2 antibody) (human (endogenous in HeLa)) (UniProt Q9UKV8); test: co-IP; HeLa cells transfected with Flag-tagged full-length PSMC3 or deletion mutants, 48 h; lysates immunoprecipitated with anti-AGO2 antibody, blot with anti-Flag and anti-AGO2
[5] = biological target: pSOS AGO2-PIWI (human Argonaute 2 PIWI domain fused to hSOS) (human) (UniProt Q9UKV8); test: two-hybrid; yeast two-hybrid; pSOS-AGO2-PIWI against full-length PSMC3 or deletion mutants

Row | binding (HA-AGO2-PIWI (human) [1]) | binding (HA-AGO2-PIWI (human) [2]) | binding (HA-AGO2-PIWI (human) [3]) | binding [4] | binding [5] | Substance
1 | binds | binds | binds | binds |  | Flag-tagged full-length PSMC3 (from UniProt P17980 1-439)
2 |  |  |  |  | binds | PSMC3 (1–214) (yeast two-hybrid construct) (from UniProt P17980 1-214) (domain or fragment)
3 |  |  |  |  | binds | full-length PSMC3 protein (yeast two-hybrid construct) (from UniProt P17980 1-439)
